Here are results for one sequence from paper PMC10028406.

Construct, isoform or probe ends are uncertain for at least one entry.

The test system of this series is IbAITR5 (Ipomoea batatas). The series can be described thus: EMSA. The conditions noted are these: 150x unlabelled probe used as competitor; EMSA per manufacturer's instructions (Thermo Fisher Scientific); pH and temperature not stated; recombinant protein; protein details: GST (pGEX-6P-1); label: biotin. (Mobility shift assays separate free from complexed probe on a gel.)

Turning to “AGTCGTTTTGAACGTGACAGTTATAGAC (double strand) [IbSGR1 promoter NACRS probe (-871 to -844)]”, the binding result was “binds”.
